Test results from patent US20070248589A1 (GOVERNMENT OF THE UNITED STATES OF AMERICA AS REPRESENTED …, published 2007).

Target: Myc-tagged, full-length mouse Uba3 (mouse)
Experiment: GST pulldown from a mixture of 35S-labelled Myc-Uba3 and AppBP1

B1: GST-SPATIAL long isoform fusion protein (other)
chain: LFLGNVYKGSLAPRRDEVTSPKAEPQPETKPENLPRSHGDVGLQKETVVPGIVDFELIHEELKTTKPQTSQPTPSAYRFGRLSHHSFFSRHHPQPQRVTHIQVTGREDLEHSLPLTTSFQLLQAPGVQPMDLTPSADIAGKPVCVVRDEFSLSALTQPTFLSRCLMGMPTISVPIGDPQSNRNPQLSTSDTWRKKLKDLASRVTVFTKEIQPKPDEVGVAQRMEPRKKRPS
notes: SPATIAL cDNA cloned into pGEx5X1, expressed in bacteria and held on glutathione-Sepharose beads; not shown: glutathione-S-transferase (GST) encoded by the pGEx5X1 expression vector
  binding: binds

Results are given in words; binding and its absence hold for the method and conditions named. In cells and extracts the contact can be indirect. Binding calls can cover weak binding; strength is not graded here. Where a sequence is shown, tags or fusion partners need not be part of it.
